Experimental data reported in paper PMC7734798 (ACS Medicinal Chemistry Letters, 2020).

Details: PAMPA

With `COc1cc2c(cc1OC)C(=O)C(CC1CCN(Cc3ccccc3)CC1)C2` (stereo not shown) [donepezil] the “BBB penetration estimation, CNS (+/−)” value was “CNS +”.
